Results are given in words; binding and its absence hold for the method and conditions named. Some binding calls cover weakened binding; strength is not graded here.
What was measured:
[1] = target: human receptor CX3CR1 (human) (UniProt P49238); assay: 125I-CX3CL1 on CX3CR1-expressing HEK293T membranes
[2] = target: human receptor CX3CR1 (human) (UniProt P49238); assay: binding of 125I-CX3CL1 to CX3CR1-expressing HEK293T membranes and its displacement by unlabeled CX3CL1

By UniProt entry, the sequences of proteins in these tests, tags left out. Residues count along the entry.
UniProt P49238: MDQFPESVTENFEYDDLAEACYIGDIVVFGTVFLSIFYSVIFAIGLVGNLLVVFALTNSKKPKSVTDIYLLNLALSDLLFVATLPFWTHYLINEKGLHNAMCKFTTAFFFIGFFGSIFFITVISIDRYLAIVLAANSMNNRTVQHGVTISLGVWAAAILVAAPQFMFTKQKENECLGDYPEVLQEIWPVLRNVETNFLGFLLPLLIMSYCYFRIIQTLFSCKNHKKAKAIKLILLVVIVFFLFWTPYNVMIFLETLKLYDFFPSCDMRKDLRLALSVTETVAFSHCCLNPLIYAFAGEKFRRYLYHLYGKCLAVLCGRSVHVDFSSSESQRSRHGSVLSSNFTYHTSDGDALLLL
UniProt P78423, residues 25-100: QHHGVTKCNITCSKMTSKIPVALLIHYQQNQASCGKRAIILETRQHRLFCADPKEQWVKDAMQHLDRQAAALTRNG

binding [1]: binds
binding [2]: binds
Substance: human chemokine CX3CL1 (from UniProt P78423 25-100) (ligand)
